Test results: the supplement of paper PMC10689618
Where a name gives a salt, the structure may show the parent alone. Some of the results follow. Many values rest on one well or one pass, so single values are uncertain.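 Labelled rat cortical synaptosomes were engulfed by primary human fetal astrocytes. Engulfment equaled a red/green ratio, corrected for calcein live-cell signal and normalized to the plate median. Compounds were toxic when calcein dropped over 30%, and reduced phagocytosis when below 70% of the median above 5 µM.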

What was measured:
Human fetal astrocytes [1] = test: loss of total cells relative to no-compound high-control median (toxicity); higher = more toxic (fewer cells); conditions: 24 h
Human fetal astrocytes [2] = test: synaptosome phagocytosis (pHrodo/calcein intensity ratio) relative to plate median of data wells; higher = more phagocytosis; conditions: 24 h

SMILES	loss of total cells (Human fetal astrocytes [1]; 1.39 µM)	loss of total cells (Human fetal astrocytes [1]; 2.78 µM)	loss of total cells (Human fetal astrocytes [1]; 5.56 µM)	loss of total cells (Human fetal astrocytes [1]; 11.11 µM)	loss of total cells (Human fetal astrocytes [1]; 22.22 µM)	synaptosome phagocytosis (Human fetal astrocytes [2]; 1.39 µM)	synaptosome phagocytosis (Human fetal astrocytes [2]; 2.78 µM)	synaptosome phagocytosis (Human fetal astrocytes [2]; 5.56 µM)	synaptosome phagocytosis (Human fetal astrocytes [2]; 11.11 µM)	synaptosome phagocytosis (Human fetal astrocytes [2]; 22.22 µM)
CC(C)C(=O)c1c(C(C)C)nn2ccccc12 [Ibudilast]	4.6%	-5.1%	7.4%	-2.2%	-6.4%	91.6%	87.3%	112%	89.8%	92.7%
C[N+](C)(C)CCCCCC[N+](C)(C)C [Hexamethonium bromide]	7.9%	-6%	-6.6%	-20.2%	-3.2%	144%	83.8%	133%	116%	117%
CCCCCCCCCCCCCCSCC(=O)O [Tetradecylthioacetic acid]	-11.5%	-16.5%	-8.4%	10.3%	-7.4%	108%	109%	116%	146%	112%
CC(C)(C)NCC(O)c1ccc(O)c(CO)c1 (stereo not given) [Albuterol hemisulfate]	-5.9%	-12.9%	-10.7%	-13.4%	-50.2%	91.5%	96%	94.1%	109%	110%
COc1ccccc1N1CCN(CCN(C(=O)c2ccc(F)cc2)c2ccccn2)CC1 [p-MPPF dihydrochloride]	6.2%	8.6%	14.6%	10.5%	13.1%	95.7%	115%	113%	124%	111%
Nc1nc(N)c2nc(CNc3ccc(C(=O)N[C@@H](CCC(=O)O)C(=O)O)cc3)cnc2n1 [Aminopterin]	-21.7%	-18.6%	-19.8%	-8.5%	11.7%	113%	81.5%	115%	125%	128%
O=C(O)CCCCC1CCSS1 (racemic) [(±)-alpha-Lipoic Acid]	-16.5%	-9.9%	4.5%	-12.6%	-18.9%	101%	85.3%	89.9%	103%	120%
CC(C)c1ccc2c(c1)c(SC(C)(C)C)c(CC(C)(C)C(=O)O)n2Cc1ccc(Cl)cc1	-9%	13.1%	-2.3%	22.9%	15%	106%	110%	88.2%	97.5%	32.6%
O=C(O)c1cc(=O)c2c(Cl)cc(Cl)cc2[nH]1 [5,7-Dichlorokynurenic acid]	-19.7%	-3.4%	-9.9%	-11.2%	-7.2%	88.5%	92.6%	90.7%	107%	94.5%
Cc1cn([C@H]2C[C@H](N=[N+]=[N-])[C@@H](CO)O2)c(=O)[nH]c1=O [3'-Azido-3'-deoxythymidine]	-3.3%	-11.1%	-14.3%	-4%	-3.4%	150%	117%	113%	119%	91.8%
CN1CCc2cccc3c2[C@H]1Cc1ccc(O)c(O)c1-3 [Apomorphine hydrochloride hemihydrate]	-13.2%	1.5%	1.4%	3.1%	4.1%	71.7%	98.8%	82.1%	66.1%	32.7%
CC(C)NCC(O)COc1ccc(CCOCC2CC2)cc1 (stereo not given) [Betaxolol hydrochloride]	2.2%	-10.8%	-18%	4%	-7.9%	110%	91.8%	108%	106%	120%
NC(=S)c1ccc[n+]([C@@H]2O[C@@H](COP(=O)([O-])OP(=O)(O)OC[C@H]3O[C@@H](n4cnc5c(N)ncnc54)C(OP(=O)(O)O)[C@H]3O)C(O)C2O)c1 (stereo not given in full) [Thio-NADP sodium]	-18.3%	-9.3%	5.1%	-20.3%	-20.6%	86.8%	97.5%	119%	139%	102%
O=c1[nH]ccc2c(O)cccc12 [1,5-Isoquinolinediol]	-3.3%	5.9%	36.2%	26.7%	33.6%	120%	137%	120%	113%	113%
O=C(O)CCC/C=C\C[C@@H]1[C@@H](/C=C/[C@H](O)C2Cc3ccccc3C2)[C@@H](F)C[C@@H]1O	-14.7%	-17.1%	-18%	-11.2%	1.1%	125%	102%	109%	104%	107%
Nc1nc2c(ncn2COC(CO)CO)c(=O)[nH]1 [Ganciclovir]	6.3%	-6%	14.8%	-3.1%	6.4%	119%	121%	94.6%	104%	102%
CC[N+](CC)(CC)CC [Tetraethylammonium chloride]	-15.2%	-1.5%	-5.6%	-8.8%	-29.6%	130%	116%	84.6%	114%	129%
COC(=O)[C@@H]1[C@H]2C[C@H]3c4[nH]c5ccccc5c4CCN3C[C@@H]2CC[C@@H]1O [Yohimbine hydrochloride]	-18.3%	-24.9%	4.5%	-20.3%	-30.5%	87.6%	104%	71.7%	102%	116%
CCCCCCN(CCCCCC)C(=O)Cc1c(-c2ccc(F)cc2)[nH]c2ccccc12 [N,N-Dihexyl-2-(4-fluorophenyl)indole-3-acetamide]	0.4%	-4.3%	-4.1%	3.1%	6.4%	99.2%	101%	90.6%	48.4%	95.6%
CSc1ccc2c(c1)C(N1CCN(C)CC1)Cc1ccccc1S2 (stereo not given) [Methiothepin mesylate]	-1.4%	-9.5%	-5.2%	3.8%	41.1%	126%	83.6%	94.4%	74.8%	78.7%
CSc1nc(N)c2ncn([C@@H]3O[C@H](COP(=O)(O)OP(=O)(O)OP(=O)(O)O)[C@H](O)C3O)c2n1 (stereo not given in full) [2-Methylthioadenosine triphosphate tetrasodium]	-1.1%	-1.2%	-2.3%	13%	-6.4%	93.3%	78.5%	88.5%	80.4%	90.4%
CCCCCC[C@@H]([C@@H](C)O)n1cnc2c(N)ncnc21 [erythro-9-(2-Hydroxy-3-nonyl)adenine hydrochloride]	-3.8%	-12%	-6.6%	-13%	-8%	87.3%	101%	121%	99%	88.4%
OC[C@H]1O[C@@H](c2nc3cc(Cl)c(Cl)cc3[nH]2)[C@H](O)[C@@H]1O [D-ribofuranosylbenzimidazole]	2.1%	-14.5%	-9.9%	-13%	-10.4%	88.8%	118%	71.9%	84.2%	47.4%
COc1cccc(-c2cc(=O)c3ccccc3o2)c1N	-5.3%	-3.9%	-15.7%	-31%	-47.7%	77.8%	110%	83.9%	100%	137%
NCC=CC(=O)O (stereo in doubt) [cis-4-Aminocrotonic acid]	-7.7%	-12.9%	-11.5%	-11.2%	-1.9%	84.4%	90.7%	117%	90.2%	116%

SMILES	loss of total cells (Human fetal astrocytes [1]; 1.39 µM)	loss of total cells (Human fetal astrocytes [1]; 2.78 µM)	loss of total cells (Human fetal astrocytes [1]; 5.56 µM)	loss of total cells (Human fetal astrocytes [1]; 11.11 µM)	loss of total cells (Human fetal astrocytes [1]; 22.22 µM)	synaptosome phagocytosis (Human fetal astrocytes [2]; 1.39 µM)	synaptosome phagocytosis (Human fetal astrocytes [2]; 2.78 µM)	synaptosome phagocytosis (Human fetal astrocytes [2]; 5.56 µM)	synaptosome phagocytosis (Human fetal astrocytes [2]; 11.11 µM)	synaptosome phagocytosis (Human fetal astrocytes [2]; 22.22 µM)
COc1ccccc1NC(=O)Nc1nc(-c2cccnc2)nc2ccccc12	-12.7%	-22.5%	0%	-24.9%	-36.2%	113%	108%	113%	83.6%	112%
Nc1nc(Cl)nc2c1ncn2[C@@H]1O[C@H](COP(=O)(O)OP(=O)(O)OP(=O)(O)O)[C@H](O)C1O (stereo not given in full) [2-Chloroadenosine triphosphate tetrasodium]	-12.1%	-14.5%	8.2%	-31.8%	11.2%	93%	91.6%	111%	105%	113%
CCN(CC)CCCCCCCCOC(=O)c1cc(OC)c(OC)c(OC)c1 [TMB-8 hydrochloride]	4.4%	-14.1%	-27.2%	4%	17.7%	121%	110%	94.5%	113%	102%
OC[C@H]1NC[C@@H](O)[C@@H]1O [1,4-Dideoxy-1,4-imino-D-arabinitol]	-4.6%	-8.5%	-14%	-3.1%	-11.2%	91%	124%	91%	82.3%	109%
Cn1cnc2c(NC3CCCC3)ncnc21 [N6-Cyclopentyl-9-methyladenine]	-9%	3.2%	20.2%	2.9%	25.2%	126%	108%	108%	108%	111%
NCCNC(=O)c1ccc(Cl)cc1 [Ro 16-6491 hydrochloride]	-14%	-48.8%	-7.3%	-24.9%	-13.2%	97.2%	109%	112%	111%	109%
COc1[nH]c2ccc(F)cc2c1C(=O)OCC1CCN(CCNS(C)(=O)=O)CC1.NS(=O)(=O)O	-2.1%	0%	4.9%	-16.6%	-5.6%	114%	83.9%	108%	77.7%	74%
CC(C)(CO)Cc1cc(C(C)(C)C)c(O)c(C(C)(C)C)c1	-18%	-20.5%	-4.1%	-12.1%	-10.2%	96.9%	87.8%	114%	109%	106%
NC(=O)c1ncn([C@@H]2O[C@H](CO)[C@@H](O)[C@H]2O)c1O [Mizoribine]	-0.5%	10.4%	-2.3%	18.1%	12.1%	130%	150%	78.2%	123%	127%
CCN1C(=O)C=CC1=O [N-Ethylmaleimide]	4.6%	-22.2%	1.6%	-9.4%	-8%	86.1%	81.4%	87.6%	83.5%	95.3%
Nc1ccc(CCNc2ncnc3c2ncn3C2OC(CO)C(O)C2O)cc1 (stereo not given) [N6-2-(4-Aminophenyl)ethyladenosine]	-27.5%	-6.9%	-15.2%	-29.1%	-10.2%	79.2%	99.7%	95.6%	118%	100%
CCCC(C(=O)OCCN(CC)CC)(c1ccccc1)c1ccccc1 [SKF-525A hydrochloride]	-13.7%	2.3%	12.7%	24.8%	15%	105%	87.7%	106%	80.9%	93.3%
CNCCC(Oc1ccccc1OC)c1ccccc1 (stereo not given) [Nisoxetine hydrochloride]	-18.5%	-12.2%	1.4%	18.1%	17.8%	106%	76.8%	112%	94%	120%
CCCCCCCC/C=C\CCCCCCCC(=O)NCCO [N-Oleoylethanolamine]	4.3%	-3.2%	1.4%	-2.9%	15%	128%	98.9%	107%	87.8%	125%
CC(=O)NCCc1c[nH]c2ccc(O)cc12 [N-Acetyl-5-hydroxytryptamine]	-11%	-20.8%	-21.7%	-2.2%	7.1%	108%	138%	102%	101%	132%
O=C1NC(c2cccc([N+](=O)[O-])c2)=CCN1c1ccccc1O [Icilin]	-15.5%	2.6%	-6.6%	-4.9%	0%	74.3%	115%	105%	124%	112%
Nc1ncnc2c1nc(Sc1ccc(Cl)cc1)n2C1OC2COP(=O)(O)O[C@@H]2[C@@H]1O (stereo not given in full) [8-(4-Chlorophenylthio)-cAMP sodium]	0.7%	0.9%	-10.6%	-6.7%	4.1%	102%	137%	117%	136%	115%
CCCCCCCCCCCCCCCC(=O)OC(CC(=O)O)C[N+](C)(C)C (racemic) [Palmitoyl-DL-Carnitine chloride]	-8.1%	-5%	-5.2%	15.2%	16.8%	101%	84.9%	74.4%	86.3%	78.7%
CC(=O)SCC[N+](C)(C)C [Acetylthiocholine chloride]	-11%	-5.7%	-16.1%	-21.1%	-2.6%	95%	91.2%	106%	112%	105%
Fc1ccc(C(OCCCc2cnc[nH]2)c2ccc(F)cc2)cc1	-31.8%	14%	14.6%	13.3%	17.8%	100%	94.9%	109%	56.6%	75.2%
O=C(O)c1cc2cc(Cc3cccnc3)ccc2o1 [Furegrelate sodium]	11.3%	-12.8%	1.6%	-26.5%	-9.6%	98%	130%	137%	130%	108%
Oc1ccc(C2CNCCc3c2cc(O)c(O)c3Cl)cc1 (stereo not given) [Fenoldopam bromide]	-5.4%	-12%	-14.8%	-12.1%	4.8%	86.2%	127%	118%	97.2%	130%
COc1cc(C(O)C(=O)O)ccc1O (racemic) [(±)-Vanillylmandelic acid]	1.3%	-7.7%	5.8%	-22.9%	-2.4%	97.6%	136%	102%	89.4%	104%
CC(=O)C(C)=O [2,3-Butanedione]	-3.8%	-8.5%	0%	-4.9%	-8.8%	108%	124%	104%	109%	107%
CCCn1cnc2c1c(=O)n(CCCCC(C)=O)c(=O)n2C [Propentofylline]	-7.1%	-34.4%	-7.3%	-8.8%	-21.4%	101%	111%	125%	116%	109%

Among those listed so far, these have a carbonyl joined to an NH by a bond outside any ring:
SMILES	loss of total cells (Human fetal astrocytes [1]; 1.39 µM)	loss of total cells (Human fetal astrocytes [1]; 2.78 µM)	loss of total cells (Human fetal astrocytes [1]; 5.56 µM)	loss of total cells (Human fetal astrocytes [1]; 11.11 µM)	loss of total cells (Human fetal astrocytes [1]; 22.22 µM)	synaptosome phagocytosis (Human fetal astrocytes [2]; 1.39 µM)	synaptosome phagocytosis (Human fetal astrocytes [2]; 2.78 µM)	synaptosome phagocytosis (Human fetal astrocytes [2]; 5.56 µM)	synaptosome phagocytosis (Human fetal astrocytes [2]; 11.11 µM)	synaptosome phagocytosis (Human fetal astrocytes [2]; 22.22 µM)
Nc1nc(N)c2nc(CNc3ccc(C(=O)N[C@@H](CCC(=O)O)C(=O)O)cc3)cnc2n1 [Aminopterin]	-21.7%	-18.6%	-19.8%	-8.5%	11.7%	113%	81.5%	115%	125%	128%
COc1ccccc1NC(=O)Nc1nc(-c2cccnc2)nc2ccccc12	-12.7%	-22.5%	0%	-24.9%	-36.2%	113%	108%	113%	83.6%	112%
NCCNC(=O)c1ccc(Cl)cc1 [Ro 16-6491 hydrochloride]	-14%	-48.8%	-7.3%	-24.9%	-13.2%	97.2%	109%	112%	111%	109%
NC(=O)c1ncn([C@@H]2O[C@H](CO)[C@@H](O)[C@H]2O)c1O [Mizoribine]	-0.5%	10.4%	-2.3%	18.1%	12.1%	130%	150%	78.2%	123%	127%
CCCCCCCC/C=C\CCCCCCCC(=O)NCCO [N-Oleoylethanolamine]	4.3%	-3.2%	1.4%	-2.9%	15%	128%	98.9%	107%	87.8%	125%
CC(=O)NCCc1c[nH]c2ccc(O)cc12 [N-Acetyl-5-hydroxytryptamine]	-11%	-20.8%	-21.7%	-2.2%	7.1%	108%	138%	102%	101%	132%
